Reference: PubChem BioAssay AID1487 (National Center for Advancing Translational Sciences (NCATS), 2009)
Some of the results follow. The main result of the screen is listed elsewhere. These columns were measured beside it and carry no call. Compounds called inactive in the main read-out are mostly missing here. Potencies come from curve fits of mixed quality, noted in brackets.

Assay: qHTS Assay for Modulators of Lamin A Splicing
Details: HeLa LMNA splicing GFP/RFP minigene ratio, 48 h
In short: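 S3 HeLa stable clones carrying a lamin A-EGFP splicing minigene plus DsRed2 were seeded at 600 cells/well in Opti-MEM with 2% FBS, pin-dosed and incubated 48 h at 37°C. Acumen cytometry (488 nm) gave the GFP/RFP total-intensity ratio.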

[1] = measured here: GFP splicing reporter channel
[2] = measured here: RFP viability control channel

Row | Structure (SMILES) | AC50 [1] | AC50 [2]
1 | CC1CCC2C(=O)N(c3ccc(NC4CCCCC4)c([N+](=O)[O-])c3)C(=O)C2C1 (configuration not stated) | 14.1 µM [rising, single point] | 31.6 µM [rising, single point]
2 | COc1cc2c(cc1OC)C(C(=O)NCc1ccco1)C1c3ccccc3CCN1C2=O (configuration not stated) | 0.02 µM [rising, full curve, poor fit] | 
3 | CC(=O)Nc1cccc(C(=O)/C=C/c2ccc(C)cc2)c1 | 35.5 µM [falling, single point] | 14.1 µM [falling, single point]
4 | COc1ccccc1C(=O)Nn1c(C2CCC2)nc2ccccc2c1=O |  | 25.1 µM [rising, single point]
5 | CCCCOc1ccc(S(=O)(=O)NCc2csc(C)n2)cc1 | 12.6 µM [rising, partial curve] | 12.6 µM [rising, partial curve]
6 | COC(=O)c1[nH]c(C)c(/C(O)=C2\C(=O)C(=O)N(CCN(C)C)C2c2ccccc2OC)c1C (configuration not stated) |  | 22.4 µM [rising, single point]
7 | Nc1nc(N2CCN(C/C=C/c3ccccc3)CC2)nc2ccccc12 |  | 25.1 µM [rising, single point]
8 | Cc1ccc(S(=O)(=O)Nc2ccccc2/C=N/c2nc3ccccc3n2C)cc1 |  | 0.0316 µM [rising, full curve]
9 | O=C(NC(=S)Nc1ccc2c(c1)OCCO2)c1ccc(F)cc1Cl | 14.1 µM [rising, single point] | 25.1 µM [rising, single point]
10 | CCOC(=O)C1(Cc2ccccc2)CCN(C2Cc3ccccc3C2)CC1 | 17.8 µM [falling, partial curve, poor fit] | 15.8 µM [falling, partial curve]
11 | COc1ccc(CNC(=O)C(=O)NCC2OCCN2S(=O)(=O)c2ccc3c(c2)OCCO3)cc1 (configuration not stated) |  | 15.8 µM [rising, single point]
12 | Cc1ccccc1-c1nn2c(=O)cc(CN3CCN(C(=O)/C=C/c4ccccc4)CC3)nc2s1 | 11.2 µM [falling, partial curve, poor fit] | 11.2 µM [falling, partial curve]
13 | Cc1cc(=O)n2c(ccc3ccccc32)c1C#N | 1.58 µM [rising, partial curve] | 
14 | CC(C)(C)C(=O)NC(n1cnc2c(N3CCOCC3)ncnc21)C(Cl)(Cl)Cl (configuration not stated) | 15.8 µM [falling, single point] | 
15 | CSCCC(NC(=O)c1ccc(Cl)cc1)C(=O)OCC(=O)Nc1cc(Cl)ccc1C#N (configuration not stated) | 35.5 µM [rising, single point] | 
16 | Cc1cccc(N2C(N)=C(C#N)C(C#N)(C#N)C2c2ccccc2)c1 (configuration not stated) | 12.6 µM [rising, partial curve, poor fit] | 12.6 µM [rising, partial curve]
17 | CCCOC(=O)NC(CC)COC(=O)Nc1cc(C)ccc1C (configuration not stated) | 35.5 µM [rising, single point] | 35.5 µM [rising, single point]
18 | Cc1ccccc1NC1=C(Cl)C(=O)N(C2CCCCC2)C1=O |  | 35.5 µM [rising, single point]
19 | Fc1cc(NCc2ccccc2)nc(NCc2ccccc2)n1 | 31.6 µM [rising, single point] | 35.5 µM [rising, single point]
20 | CCOC(=O)c1ccc(CN(Cc2ccc(F)cc2)S(=O)(=O)c2ccc(F)c(C(=O)Nc3ccc(Cl)cc3F)c2)cc1 | 6.31 µM [rising, partial curve, poor fit] | 14.1 µM [rising, partial curve]
21 | CCOc1ccc(NC(=O)c2c(NCc3cccnc3)sc3c2CCCC3)cc1 | 17.8 µM [falling, partial curve, poor fit] | 
22 | O=C(Nc1ccc2c(c1)Cc1ccccc1-2)c1ccncc1 |  | 22.4 µM [rising, single point]
23 | CCOC(=O)c1c(NC(=O)Cn2nc(C(=O)O)c3ccccc3c2=O)sc(CC)c1C |  | 0.282 µM [rising, full curve, poor fit]
24 | COc1ccc(-c2nnc(SCC(=O)Nc3cccc(C(F)(F)F)c3)nc2-c2ccc(OC)cc2)cc1 | 14.1 µM [rising, single point] | 11.2 µM [rising, partial curve, poor fit]
25 | COC(=O)c1cc2ccsc2n1CC(=O)Nc1cc(Cl)ccc1OC |  | 11.2 µM [rising, partial curve]
26 | CN(CCCNC(=O)c1cc2c(Cl)nc3ccccc3c2s1)Cc1ccccc1 | 14.1 µM [falling, partial curve, poor fit] | 22.4 µM [falling, partial curve]
27 | S=C(NCC1CCCO1)Nc1ccc(Cl)cc1 (configuration not stated) | 35.5 µM [rising, single point] | 

Of the compounds above, these have a cyano group.
Row | Structure (SMILES) | AC50 [1] | AC50 [2]
13 | Cc1cc(=O)n2c(ccc3ccccc32)c1C#N | 1.58 µM [rising, partial curve] | 
15 | CSCCC(NC(=O)c1ccc(Cl)cc1)C(=O)OCC(=O)Nc1cc(Cl)ccc1C#N (configuration not stated) | 35.5 µM [rising, single point] | 
16 | Cc1cccc(N2C(N)=C(C#N)C(C#N)(C#N)C2c2ccccc2)c1 (configuration not stated) | 12.6 µM [rising, partial curve, poor fit] | 12.6 µM [rising, partial curve]

Continued:

Row | Structure (SMILES) | AC50 [1] | AC50 [2]
28 | Cc1cc(C)c(NC(=O)Cn2cc(S(=O)(=O)Cc3ccccc3F)c3ccccc32)c(C)c1 |  | 4.47 µM [falling, full curve, poor fit]
29 | CC(=O)Nc1ccc(-c2csc(NC(=O)CCCc3cccs3)n2)cc1 | 11.2 µM [rising, partial curve] | 15.8 µM [rising, single point]
30 | Cc1ccc(C)n1CCN1CCN(C(=O)CSc2nc3ccccc3nc2N2CCOCC2)CC1 |  | 35.5 µM [falling, single point]
31 | COc1ccccc1NC(=O)N(Cc1nnc2n1CCCCC2)c1ccc(F)cc1 |  | 10 µM [rising, partial curve, poor fit]
32 | COc1ccc(/C=C2/SC(=S)N(CCC(=O)O)C2=O)cc1 | 31.6 µM [rising, single point] | 
33 | Cn1c(=O)oc2cc(S(=O)(=O)Nc3cccc(F)c3)ccc21 |  | 35.5 µM [rising, single point]
34 | O=C(N/N=C/c1c(O)ccc2ccccc12)c1[nH]ncc1Br |  | 12.6 µM [rising, partial curve]
35 | C=CCOc1c(CNc2ccc(S(N)(=O)=O)cc2)cccc1OC |  | 20 µM [rising, single point]
36 | C/C(=N/N=C1/NC(=O)CC(C(=O)Nc2ccccc2)S1)c1cccs1 (configuration not stated) |  | 2 µM [rising, partial curve]
37 | O=C(Cn1cc(C(F)(F)F)ccc1=O)N/N=C/c1cccc(Cl)c1Cl | 5.01 µM [rising, partial curve, poor fit] | 
38 | Cc1nn(-c2ccccc2)c(N2CCCC2)c1/C=N/Nc1ccc(S(N)(=O)=O)cc1[N+](=O)[O-] |  | 14.1 µM [rising, single point]
39 | Cc1sc2ncnc(NC3CCN(Cc4ccccc4)CC3)c2c1C | 1 µM [falling, full curve, poor fit] | 
40 | Cc1ccc2onc(CC(=O)N3CCN(c4ccc(F)cc4)CC3)c2c1 | 12.6 µM [falling, single point] | 35.5 µM [falling, single point]
41 | Cc1cc(O)c2ccccc2c1O | 20 µM [rising, single point] | 11.2 µM [falling, partial curve]
42 | O=C1C=C(Nc2ccc(Cl)cc2)CC(c2ccccc2)C1 (configuration not stated) |  | 8.91 µM [rising, partial curve]
43 | O=C(Nc1ccc(Oc2ccc(C(F)(F)F)cn2)c(Cl)c1)C1CC1 | 31.6 µM [falling, partial curve] | 31.6 µM [falling, partial curve]
44 | Cc1cc(N2CCCC2)nc(N2C3CCC2CC(O)(c2ccc(F)cc2)C3)n1 (configuration not stated) | 15.8 µM [falling, partial curve, poor fit] | 7.08 µM [falling, full curve, poor fit]
45 | Fc1ccc(Nc2nc(SCc3ccc(Cl)cc3)nc3ccccc23)cc1 | 35.5 µM [falling, single point] | 35.5 µM [falling, partial curve, poor fit]
46 | O=S(=O)(NCC(c1ccco1)S(=O)(=O)c1ccccc1)c1cc(F)ccc1F (configuration not stated) |  | 35.5 µM [rising, single point]
47 | COc1cnc(-c2ccccn2)nc1NC(C)C | 35.5 µM [rising, partial curve, poor fit] | 35.5 µM [rising, partial curve]
48 | NCCOB(c1ccccc1)c1ccccc1 | 35.5 µM [rising, single point] | 
49 | O=C(C/C(=N\NC(=O)c1ccccc1Br)C(F)(F)F)c1cccs1 | 17.8 µM [rising, single point] | 22.4 µM [rising, single point]
50 | CC(=O)Oc1ccc2occ(/C=N/c3cc(=O)[nH]c(=S)[nH]3)c(=O)c2c1 | 2.24 µM [rising, partial curve, poor fit] | 0.112 µM [rising, full curve, poor fit]
51 | Cc1nn(C)cc1C1Nc2ccccc2C(=O)N1O (configuration not stated) |  | 1.58 µM [rising, partial curve, poor fit]
52 | N[C@H](Cc1cc(I)c(Oc2cc(I)c(O)c(I)c2)c(I)c1)C(=O)O | 0.355 µM [falling, partial curve] | 0.0891 µM [falling, full curve, poor fit]
53 | COC(=O)Nc1ccc(S(=O)(=O)Nc2cccc3ccccc23)cc1 |  | 12.6 µM [rising, partial curve]
54 | COc1ccccc1Cn1c(-c2ccccc2OC)nc2ccccc21 | 25.1 µM [rising, single point] | 31.6 µM [rising, single point]
